From ChEMBL document CHEMBL3132834, “Synthesis and biological activity of NOSH-naproxen (AVT-219) and NOSH-sulindac (AVT-18A) as potent anti-inflammatory agents with chemotherapeutic potential” (Medchemcomm, 2013) come the findings set out here.

This assay relates to Jurkat. In words: Cytotoxicity against human Jurkat cells assessed as growth inhibition after 24 hrs by MTT assay. The assay is classed as functional, cell-based. Put shortly: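 Jurkat T cells grown in suspension in RPMI 1640 with 10% FCS. 30,000 cells/well added to serially diluted compounds in V-bottom plates, 24 h at 37°C in 5% CO₂. MTT (1.1 mg/mL) added for 4 h more, formazan dissolved in DMSO, A570 read. IC₅₀ from 5–7 experiments in triplicate; ratio is parent IC₅₀ over hybrid IC₅₀.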
In general terms: Tetrazolium dyes change colour on reduction, which living cells bring about.

`COc1ccc2cc([C@H](C)C(=O)O)ccc2c1` [NAPROXEN]: the concentration for half-maximal inhibition (IC50) amounted to 2550 µM.

The term IC50 denotes the point on the concentration scale where inhibition reaches its midpoint.
